According to the supplement of paper PMC8326762, “A Small Molecule Inhibitor of Pex3–Pex19 Interaction Disrupts Glycosome Biogenesis and Causes Lethality in Trypanosoma brucei” (Frontiers in Cell and Developmental Biology, 2021):
Structures can show the parent of a compound that is named as a salt. This is one part of the list. The data scatter; read single values as rough.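 Yeast growth was measured as optical density at 600 nm. Two-hybrid strains grew without histidine, so growth depended on Pex3–Pex19 binding. A compound was trypanosome-selective if it reduced growth of the trypanosome-pair strain by over 65% and of the human-pair strain by under 65%.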

What was measured:
[1] = tested on: Saccharomyces cerevisiae HF7c pdr5Δ; assay: general growth inhibition of yeast HF7c pdr5Δ in -Leu -Trp medium, relative to DMSO; higher = stronger general growth inhibition; settings: 100 µM; 24 h
[2] = tested on: human PEX3-PEX19 interaction (yeast two-hybrid); assay: growth inhibition of yeast two-hybrid strain reporting HsPex3-HsPex19 interaction, relative to DMSO; higher = stronger inhibition of human Pex3-Pex19 interaction / growth; settings: 100 µM; 24 h; 3-aminotriazole 10 mM
[3] = tested on: T. brucei Pex3-Pex19 interaction (yeast two-hybrid); assay: growth inhibition of yeast two-hybrid strain reporting TbPex3-TbPex19 interaction, relative to DMSO; higher = stronger inhibition of T. brucei Pex3-Pex19 interaction / growth; settings: 100 µM; 24 h

| SMILES | general growth inhibition [1] [%] | growth inhibition [2] [%] | growth inhibition [3] [%] |
| --- | --- | --- | --- |
| COc1ccccc1N1CCN(CC(O)COc2cccc3ccccc23)CC1 (stereo not drawn) [Naftopidil dihydrochloride] | 35.7 | 29.6 | 47.5 |
| N[C@@H](CCCC(=O)O)C(=O)O [L-2-aminoadipic acid] | 48.7 | 41.9 | 51.5 |
| COc1ccc2[nH]cc(CCNC(C)=O)c2c1 [Melatonin] | 41.3 | 48.5 | 68.2 |
| CC(NCCc1ccc(O)cc1)C(O)c1ccc(O)cc1 (stereo not drawn) [Ritodrine hydrochloride] | 27.7 | 12.9 | 42.7 |
| COc1cc(Cc2cnc(N)nc2N)cc(OC)c1OC [Trimethoprim] | 16.6 | 7.63 | 39.5 |
| CC(=O)OCC1=C(C(=O)O)N2C(=O)[C@@H](NC(=O)Cc3cccs3)[C@H]2SC1 [Cephalothin sodium] | 38.4 | 42.1 | 61.7 |
| CS(=O)(=O)c1ccc(-n2nc(C(F)(F)F)cc2-c2ccc(F)cc2)cc1 | 33.5 | 15.2 | 32.4 |
| CC(C)(C)NCC(O)COc1cccc2[nH]c(=O)[nH]c12 (racemic) | 35.2 | 43.8 | 65.1 |
| OC(CCN1CCCCC1)(c1ccccc1)C1CCCCC1 (stereo not drawn) [Trihexyphenidyl hydrochloride] | 38.6 | 45.6 | 60.2 |
| O=C1Cc2cc(CCN3CCN(c4nsc5ccccc45)CC3)c(Cl)cc2N1 [Ziprasidone hydrochloride monohydrate] | 46 | 39.2 | 61.7 |
| C[C@]12CCC(=O)C=C1CC[C@@H]1[C@@H]2CC[C@@]2(C)[C@H]1CC[C@]2(O)C(=O)CO [Cortexolone] | 44.2 | 38.8 | 46.5 |
